# Results reported in paper PMC11063955, “A multiplexed time-resolved fluorescence resonance energy transfer ultrahigh-throughput screening assay for targeting the SMAD4–SMAD3–DNA complex” (Journal of Molecular Cell Biology, 2023).
# These are yes or no findings as the source states them, for the method shown. Some results given as binding are weak or reduced against the parent protein; the word gives no strength. Tags and fused reporters may be left off the sequences shown.
# T1: His-tagged SMAD4 WT (Mothers against decapentaplegic homolog 4), Q13485
# T1 chain: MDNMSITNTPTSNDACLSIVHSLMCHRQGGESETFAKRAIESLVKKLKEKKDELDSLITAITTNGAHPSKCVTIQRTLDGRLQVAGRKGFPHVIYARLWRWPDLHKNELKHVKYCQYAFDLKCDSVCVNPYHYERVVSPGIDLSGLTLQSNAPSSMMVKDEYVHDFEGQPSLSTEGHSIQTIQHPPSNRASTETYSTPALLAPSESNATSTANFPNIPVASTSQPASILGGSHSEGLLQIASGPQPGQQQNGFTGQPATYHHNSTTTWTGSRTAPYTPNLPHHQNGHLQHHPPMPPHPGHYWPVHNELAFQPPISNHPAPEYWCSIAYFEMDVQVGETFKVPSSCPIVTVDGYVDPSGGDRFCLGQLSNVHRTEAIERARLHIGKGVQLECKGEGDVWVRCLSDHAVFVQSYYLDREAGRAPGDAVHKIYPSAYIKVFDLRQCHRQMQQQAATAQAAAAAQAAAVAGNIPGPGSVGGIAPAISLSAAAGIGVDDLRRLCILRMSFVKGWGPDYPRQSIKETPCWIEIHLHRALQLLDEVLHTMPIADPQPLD
# Molecular target: T1, His-tagged SMAD4 WT (Mothers against …)
# Assay: AlphaScreen or HTRF; multiplexed TR-FRET, PPI read-out (Tb-D2), lysate of HEK293T cells co-expressing His-SMAD4 and Flag-SMAD3 (WT or mutated) with 5'-FAM-SBE4 WT dsDNA; anti-FLAG M2-Tb cryptate and anti-6xHis-D2 antibodies; FRET buffer 20 mM Tris-HCl pH 7.0, 50 mM NaCl, 0.01% NP-40; 4°C for 30 min
# Settings: remark: other sources report otherwise
binder,measurement,value
"Flag-tagged SMAD3 WT, P84022 1-425 (natural protein) MSSILPFTPPIVKRLLGWKKGEQNGQEEKWCEKAVKSLVKKLKKTGQLDELEKAITTQNVNTKCITIPRSLDGRLQVSHRKGLPHVIYCRLWRWPDLHSHHELRAMELCEFAFNMKKDEVCVNPYHYQRVETPVLPPVLVPRHTEIPAEFPPLDDYSHSIPENTNFPAGIEPQSNIPETPPPGYLSEDGETSDHQMNHSMDAGSPNLSPNPMSPAHNNLDLQPVTYCEPAFWCSISYYELNQRVGETFHASQPSMTVDGFTDPSNSERFCLGLLSNVNRNAAVELTRRHIGRGVRLYYIGGEVFAECLSDSAIFVQSPNCNQRYGWHPATVCKIPPGCNLKIFNNQEFAALLAQSVNQGFEAVYQLTRMCTIRMSFVKGWGAEYRRQTVTSTPCWIELHLNGPLQWLDKVLTQMGSPSIRCSSVS",binding,binds
